PubChem BioAssay AID1224830 – NIAID | 2016
The deposit covers about 18,000 reagents; shown is an unselected part. In the full data, about 2,900 (16%) were called active. 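Calls are made per well; low scores hint the gene aids the LPS response, high scores that it dampens it.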 Repeated entries: four replicate wells of each siRNA pool.

Purpose: 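Genes whose knock-down alters the TNF-alpha reporter response to LPS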 (primary screen)
Cell system: human THP-1 monocytic leukaemia cells, TNF dual-luciferase reporter clone, PMA-differentiated to macrophage-like cells
Reagent: siRNA pool against human genes, 50 nM
Duration: LPS for 4 h, given about 3 days after siRNA transfection
Treatment: bacterial LPS (TLR4 ligand), 10 ng/ml
Measurement: 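TNF firefly reporter luminescence divided by renilla, normalised to the plate median, then turned into a robust z-score for each replicate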
Reading the numbers: TNF reporter robust z-score: higher = stronger TNF reporter response to LPS
Hit rule: 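Each well counts as active if its z-score is over 2.8 or under -1.5; controls are left without a call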

SLN | TNF reporter robust z-score: 0.15; outcome: inactive
SLN | TNF reporter robust z-score: 0.63; outcome: inactive
SLN | TNF reporter robust z-score: 0.88; outcome: inactive
SLN | TNF reporter robust z-score: 0.42; outcome: inactive
RDM1 | TNF reporter robust z-score: 0.78; outcome: inactive
RDM1 | TNF reporter robust z-score: 1.12; outcome: inactive
RDM1 | TNF reporter robust z-score: -0.73; outcome: inactive
RDM1 | TNF reporter robust z-score: 0.9; outcome: inactive
LINC01588 | outcome: inactive
LINC01588 | TNF reporter robust z-score: -1.35; outcome: inactive
LINC01588 | TNF reporter robust z-score: -1.03; outcome: inactive
LINC01588 | TNF reporter robust z-score: -1.08; outcome: inactive
LINC01588 | TNF reporter robust z-score: -1.06; outcome: inactive
DDX23 | TNF reporter robust z-score: -0.69; outcome: inactive
DDX23 | TNF reporter robust z-score: 0.38; outcome: inactive
DDX23 | TNF reporter robust z-score: -0.9; outcome: inactive
DDX23 | TNF reporter robust z-score: -0.29; outcome: inactive
EYA4 | TNF reporter robust z-score: -0.01; outcome: inactive
EYA4 | TNF reporter robust z-score: 1.69; outcome: inactive
EYA4 | TNF reporter robust z-score: 4.43; outcome: active
EYA4 | TNF reporter robust z-score: 0.69; outcome: inactive
TESC | TNF reporter robust z-score: -0.99; outcome: inactive
TESC | TNF reporter robust z-score: -0.33; outcome: inactive
TESC | TNF reporter robust z-score: -0.49; outcome: inactive
TESC | TNF reporter robust z-score: -0.73; outcome: inactive
RAB5IF | TNF reporter robust z-score: -0.33; outcome: inactive
RAB5IF | TNF reporter robust z-score: -0.97; outcome: inactive
RAB5IF | TNF reporter robust z-score: -0.39; outcome: inactive
RAB5IF | TNF reporter robust z-score: -0.48; outcome: inactive
HSP90AA1 | TNF reporter robust z-score: 1.67; outcome: inactive
HSP90AA1 | TNF reporter robust z-score: 4.52; outcome: active
HSP90AA1 | TNF reporter robust z-score: 1.39; outcome: inactive
HSP90AA1 | TNF reporter robust z-score: 0.06; outcome: inactive

Continued, starting with the last 5 of the part before.
RAB5IF | TNF reporter robust z-score: -0.48; outcome: inactive
HSP90AA1 | TNF reporter robust z-score: 1.67; outcome: inactive
HSP90AA1 | TNF reporter robust z-score: 4.52; outcome: active
HSP90AA1 | TNF reporter robust z-score: 1.39; outcome: inactive
HSP90AA1 | TNF reporter robust z-score: 0.06; outcome: inactive
PPAN-P2RY11 | TNF reporter robust z-score: 1.79; outcome: inactive
PPAN-P2RY11 | TNF reporter robust z-score: 2.76; outcome: inactive
PPAN-P2RY11 | TNF reporter robust z-score: 1.45; outcome: inactive
PPAN-P2RY11 | TNF reporter robust z-score: 0.24; outcome: inactive
PIEZO2 | TNF reporter robust z-score: 1.14; outcome: inactive
PIEZO2 | TNF reporter robust z-score: 0.39; outcome: inactive
PIEZO2 | TNF reporter robust z-score: 0.41; outcome: inactive
PIEZO2 | TNF reporter robust z-score: 1.27; outcome: inactive
DHX34 | TNF reporter robust z-score: 1.63; outcome: inactive
DHX34 | TNF reporter robust z-score: 0.63; outcome: inactive
DHX34 | TNF reporter robust z-score: 1.23; outcome: inactive
DHX34 | TNF reporter robust z-score: 0.9; outcome: inactive
TAF12 | TNF reporter robust z-score: -1.82; outcome: active
TAF12 | TNF reporter robust z-score: -1.49; outcome: inactive
TAF12 | TNF reporter robust z-score: -1.21; outcome: inactive
TAF12 | TNF reporter robust z-score: -0.29; outcome: inactive
HACL2 | TNF reporter robust z-score: 0.23; outcome: inactive
HACL2 | TNF reporter robust z-score: 0.32; outcome: inactive
HACL2 | TNF reporter robust z-score: 0.43; outcome: inactive
HACL2 | TNF reporter robust z-score: 1.82; outcome: inactive
CELA2B | TNF reporter robust z-score: -0.67; outcome: inactive
CELA2B | TNF reporter robust z-score: -0.23; outcome: inactive
CELA2B | TNF reporter robust z-score: 0.33; outcome: inactive
CELA2B | TNF reporter robust z-score: -0.37; outcome: inactive
SUFU | TNF reporter robust z-score: -1.32; outcome: inactive
SUFU | TNF reporter robust z-score: -1.85; outcome: active
SUFU | TNF reporter robust z-score: -1.11; outcome: inactive
SUFU | TNF reporter robust z-score: -1.98; outcome: active
